# Reference: the supplement of paper PMC5407854, “Inhibitor of ppGalNAc-T3-mediated O-glycosylation blocks cancer cell invasiveness and lowers FGF23 levels” (eLife, 2017)
# Whole data set: some 1,700 compounds, median “T3 sensor activation Q score (MG/GFP ratio z-score vs DMSO controls)” near 0.25, cut for the highest 2% near 1.9. Some of the results follow.
# Tested on: ppGalNAc-T3 sensor
# Assay: T3 sensor activation Q score (MG/GFP ratio z-score vs DMSO controls) (SD units); higher = more sensor activation (inhibition of ppGalNAc-T3 glycosylation)
# Details: HEK293 sensor cells; 10 µM; 6 h
# Procedure: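 Cells were treated with compound at 10 uM for 6 h, then MG/GFP ratio was read by flow cytometry (10,000 cells per well, duplicate wells). Q = (R - R_neg)/SD_neg relative to DMSO vehicle controls; the signal rises when the glycosyltransferase is inhibited.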
row,Compound,T3 sensor activation Q score
1,CN(C)C(=O)OCC1COc2ccccc2O1 (configuration not stated),-0.85
2,CCOC(=O)N1CCN(Cc2c(O)ccc3ccccc23)CC1,-0.95
3,O=C(C(Cl)Cl)N1CC2CCC(CC2)C1,1.4
4,COc1cc2ncnc(Nc3ccc(F)c(Cl)c3)c2cc1OCCCN1CCOCC1,1.2
5,c1ccc(Nc2cccc3c(Nc4ccccc4)cccc23)cc1,-0.45
6,CC1=NC2=CC=CC3=NC(C(Cl)(Cl)Cl)=NC(=N1)N23,-0.55
7,C=CCNC(=S)Nc1cccc([N+](=O)[O-])c1,0.45
8,O=c1[nH]nc(-c2cc(-c3ccccc3)nc3ccccc23)o1,-0.35
9,S=c1[nH]ccn1-c1c(Cl)cccc1Cl,0.95
10,CSc1nc(Cl)cc(=O)[nH]1,0.55
11,CN(C)c1ccc(/C=C/c2ccc3ccccc3n2)cc1,0.2
12,CC(C)NC(=O)c1ccc(C(C)C)cc1,-0.3
13,CC/C(=C(\c1ccccc1)c1ccc(OCCN(C)C)cc1)c1ccccc1,-1.55
14,CCc1oc2ccccc2c1C(=O)c1cc(Br)c(O)c(Br)c1,-0.35
15,C=C(C)C(=O)Nc1ccc(NC(C)C)cc1,0.85
16,Cc1cccc(C)c1NC(=O)Nc1ccc(S(N)(=O)=O)cc1,1.6
17,O=C(c1ccccc1)c1ccccc1C(=O)c1ccccc1,1.4
18,NS(=O)(=O)c1cc2c(cc1Cl)NC(CC1CCCC1)NS2(=O)=O (configuration not stated),0.05
19,CC(C)c1cc(C(F)(F)F)nc(NNc2nc(C(C)C)cc(C(F)(F)F)n2)n1,-1.85
20,COc1ccc2[nH]c(-c3ccccc3)cc2c1,-1.15
21,CCC12CCCN3CCc4c(n(c5ccccc45)C(O)(C(=O)OC)C1)C32 (configuration not stated),1.8
22,NC(=O)NC1NC(=O)NC1=O (configuration not stated),1.65
23,CCCSc1nc2c(c(=O)n(C)c(=O)n2C)n1C,0.5
24,Cc1cc2cc3c(=O)[nH]c(=O)[nH]c3nc2cc1C,0.35
25,O=C(/C=C/c1ccc(O)c(O)c1)OC1[C@H](O)CC(OC(=O)/C=C/c2ccc(O)c(O)c2)(C(=O)O)C[C@H]1O (some centres not stated),0.55
26,O=C1c2cccc3cc([N+](=O)[O-])cc(c23)C(=O)N1CCN1CCCC1,0.6

row,Compound,T3 sensor activation Q score
1,CCOc1ccc(/C=C2\NC(=S)NC2=O)cc1,-1.8
2,O=[N+]([O-])c1cccnc1Oc1cc(Cl)c(Cl)cc1Cl,0.75
3,CC1(C)CC(Nc2ccc(Nc3ccccc3)cc2)CC(C)(C)N1,1.85
4,COc1cc2c(O)cc(C(=O)O)c(-c3cc(OC)c(OC)c(OC)c3)c2cc1OC,-0.25
5,CSC(=O)NC(=O)NC(=O)c1ccc([N+](=O)[O-])cc1,1.45
6,Cc1nc([C@H]2CC[C@H]3[C@@H]4CCC5=CC(=O)CC[C@]5(C)[C@H]4CC[C@]23C)cs1,-0.1
7,Cn1c(C(=O)c2ccncc2)cc2ccccc21,-0.55
8,Cc1c(Cl)cccc1NC(=O)CC1Sc2ccccc2NC1=O (configuration not stated),1.1
9,COc1ccc(C(=S)N2CCN(c3ccccc3C)CC2)cc1,-0.65
10,Nc1ccc2c(c1Cl)C(=O)c1ccc(N)c(Cl)c1C2=O,0.55
11,CCOC(=O)Nc1cc2c(c(N)n1)N=C(c1ccccc1)CN2,4
12,CC(C)NCC1CCc2cc(CO)c([N+](=O)[O-])cc2N1 (configuration not stated),1.05
13,CCCc1nc2c([nH]1)c(=O)n(C)c(=O)n2C,-0.95
14,Cc1nc([N+](=O)[O-])cn1-c1nc2ccccn2c1[N+](=O)[O-],0.25
15,CC1(C)SC(C)(C)N(C=O)C1C(=O)O (configuration not stated),-0.2
16,CCCCCOC(=O)Nc1nc(=O)n([C@@H]2O[C@H](C)[C@@H](O)[C@H]2O)cc1F,0.7
17,CC(C)N(Cc1ccccc1)S(=O)(=O)c1n[nH]c(C(C)(C)C)n1,-0.95
18,COC1OCC(O)C(NC(=O)N(C)N=O)C1O (configuration not stated),1.4
19,CCCCNC(=O)Nc1ccccc1CC,0.85
20,CCCCn1c(OC(=S)N(CC)CC)cc(C)nc1=S,1.05
21,Nc1cc(Nc2ccc(Br)cc2)nc(N)n1,0.4
22,NS(=O)(=O)c1ccc(N=Nc2c(O)c(C(=O)O)cc3ccccc23)cc1,1.65
23,Cc1cc2c(cc1[N+](=O)[O-])NC(CNC(C)C)CC2 (configuration not stated),1.45
24,COc1nc(N)nc2c1ncn2[C@@H]1O[C@H](CO)[C@@H](O)[C@@H]1O,0.45
25,CCn1c(=O)n(C)c2c(=O)n(C)c(=O)n(C)c21,1.3
26,Cc1c(CCO)c(=O)n2n1CCCC2,-0.55

row,Compound,T3 sensor activation Q score
1,Oc1ccccc1-c1nc2c3ccccc3c3ccccc3c2[nH]1,0.3
2,CC(C)C(=O)c1ccc(O)c(O)c1,0.85
3,O=C(O)c1cc(O)ccc1N=Nc1ccccc1,1.1
4,CCCCSc1nc(C(=O)O)cc(=O)[nH]1,-0.95
5,CN(CCC#N)c1ccc(/C=C(\C#N)c2cccc(C(F)(F)F)c2)cc1,-0.05
6,C/C(=N\NC(=S)N1CC2CCC(CC2)C1)c1cnccn1,-1.2
7,CCn1c2ccccc2c2c3ncc4cccn4c3ccc21,-0.8
8,Cc1nc2sc3c(c2c(=O)[nH]1)CCCC3,1
9,CCOC(=O)c1cnn2c(SC)ncnc12,0.8
10,CCC(C)NC(=S)Nc1ccccc1 (configuration not stated),1.6
11,O=C1CCC(N2C(=O)c3ccccc3C2=O)C(=O)N1 (configuration not stated),0.95
12,COc1cc2c(cc1OC)C(=O)Cc1ccc3c(c1CN(C)CC2)OCO3,1.5
13,CCn1c2ccccc2nc2cc3c(cc21)c(Cl)c(=O)c1ccccc13,1.45
14,O=C(Nc1ccc(C2=NCCCN2)cc1)Nc1ccc(C2=NCCCN2)cc1,-1.5
15,CC(C)(c1cc(Cl)c(O)c(CN2CCOCC2)c1)c1cc(Cl)c(O)c(CN2CCOCC2)c1,0.6
16,Cc1cc(N2CCOCC2)nc(N2CCOCC2)n1,0
17,CCOc1ccc(NC(=O)N(O)C2(C#N)CCCCC2)cc1,0.8
18,Nc1nc(N)nc(-c2ccccc2-c2nc(N)nc(N)n2)n1,1.45
19,C1COCCN1.O=C(O)C(C=C(Cl)Cl)N1CCOCC1 (configuration not stated),0.9
20,O=c1[nH]cnc2[nH]ncc12,0.8
21,CC(C)c1nc2c([nH]1)c(=O)n(C)c(=O)n2C,-1.8
22,CCOC(=O)C(=O)Cc1cccnn1,0.35
23,O=C(O)CCCC[C@@H]1SC[C@@H]2NC(=O)N[C@@H]21,0.5
24,OC1COC(OCc2ccccc2)C(O)C1O (configuration not stated),0.75
25,Nc1cc(N)nc(CS)n1,0.95
26,O=C1C(Br)=Cc2cccc3cccc1c23,0

# 3 structures already listed, sorted by number of heavy atoms, descending:
row,Compound,T3 sensor activation Q score
8,O=c1[nH]nc(-c2cc(-c3ccccc3)nc3ccccc23)o1,-0.35
24,OC1COC(OCc2ccccc2)C(O)C1O (configuration not stated),0.75
22,CCOC(=O)C(=O)Cc1cccnn1,0.35

# More structures

row,Compound,T3 sensor activation Q score
1,CCSc1ncc(CO)c(N)n1,0.85
2,Nc1ccc2c(c1)nnn2-c1ccccc1,0.15
3,CN(C)C/C=C/C(=O)Nc1cc2c(Nc3ccc(F)c(Cl)c3)ncnc2cc1O[C@H]1CCOC1,-1.4
4,N#Cc1nnn(-c2ccc(Cl)cc2)c1N,0.9
5,S=C(Nc1ccccc1)c1ccccn1,-0.9
6,C#CCC(Cc1cnc2nc(N)nc(N)c2n1)c1ccc(C(=O)N[C@@H](CCC(=O)O)C(=O)O)cc1 (some centres not stated),-2.25
7,Cc1ccc(S(=O)(=O)N(C)C)cc1[N+](=O)[O-],-0.1
8,NC(=Nc1ccc(N)cc1)C(N)=Nc1ccc(N)cc1,-0.8
9,C=C1CC2(OC1=O)c1ccccc1CCc1ccccc12,-0.45
10,O=[N+]([O-])c1cc(Cl)cc2c1nc(NCCO)c1ccccc12,0.25
11,c1ccc2[nH]c(CCCCCc3nc4ccccc4[nH]3)nc2c1,-0.5
12,Clc1ccc2nc3ccccc3cc2c1,0.15
13,CSc1ccc(NC(=O)Nc2ccccc2C(N)=O)cc1,0.5
14,O=C1c2cc([N+](=O)[O-])ccc2-c2cc(Br)c(N=C(NO)C(F)(F)F)cc21,-0.05
15,C(=N\Nc1nnn(Cc2ccccc2)n1)/c1ccccc1,0.35
16,CCCCOc1ccc(N=Nc2ccc(N)nc2N)cn1,1.7
17,CCN(CC)C(=O)Cn1ccc(NC(C)=O)nc1=O,-0.65
18,CN(C)C(=S)/N=c1\ssc(=S)n1Cc1ccco1,-1.4
19,CC1=CC(C)(C)Nc2ccc(Cc3ccc4c(c3)C(C)=CC(C)(C)N4)cc21,1.8
20,NC(=O)SCC(=O)Nc1ccccc1C(=O)O,1
21,Cc1cccnc1NC(=S)Nc1ncccc1C,0.55
22,Cn1c([N+](=O)[O-])cnc1N1CCN(c2nncs2)C1=O,-0.1
23,CN(C)CCCn1c2c3ccccc3ccc2c2oc(=O)c3ccccc3c21,0.2
24,COc1ccc2c(c1)CCCN2C(N)=Nc1ccc(Cl)cc1,1.1
25,O=Cc1ccc(O)c2ncccc12,-1.05
26,O=C(O)C1OCC2(CO1)COC(C(=O)O)OC2 (configuration not stated),0.6

# Compounds from the list above containing two or more sulfur atoms, in the order listed:
row,Compound,T3 sensor activation Q score
18,NS(=O)(=O)c1cc2c(cc1Cl)NC(CC1CCCC1)NS2(=O)=O (configuration not stated),0.05
20,CCCCn1c(OC(=S)N(CC)CC)cc(C)nc1=S,1.05
18,CN(C)C(=S)/N=c1\ssc(=S)n1Cc1ccco1,-1.4

# (next part)

row,Compound,T3 sensor activation Q score
1,Cn1c(=O)c2[nH]c(N3CCCCC3)nc2n(C)c1=O,1.9
2,O=C(O)c1ccccc1C(=O)Nc1ccccc1[N+](=O)[O-],-0.55
3,CCCNC(=O)c1ccc(Cl)cc1Cl,-0.65
4,OCCN1CCSC1=S,1.4
5,Cc1cc(N2CCN(C)CC2)n2nc(-c3ccc(Cl)cc3)nc2n1,1.25
6,COc1cc(N=Nc2ccccc2C(=O)O)ccc1O,-0.8
7,O=C(CC1(O)CCCCC1)OC1CCCC1,-0.35
8,CCOC(=O)c1cc[nH]c1CC(=O)NC,0.6
9,NC(=O)CCC(C(=O)O)N1C(=O)C2C3CCC(C3)C2C1=O (configuration not stated),0.05
10,CC(C)COc1nc2c(c(=O)n(C)c(=O)n2C)n1C,1.35
11,COc1ccc(N/C=C2\C(=O)CCc3c2oc2cc(Cl)c(O)c(Cl)c32)cc1,0.3
12,c1ccc2cc(OCCOCCOc3ccc4ccccc4c3)ccc2c1,1.35
13,Nc1ccccc1-c1nc2ccncc2[nH]1,-0.05
14,Cc1cc(=O)c2c(=O)[nH][nH]c2[nH]1,-1.35
15,CCOC(=O)c1c(O)cc(C)[nH]c1=O,-0.85
16,O=C(O)c1cc2ccccc2c2cc(Br)ccc12,0.4
17,O=C(Nc1ccccc1)Oc1ccc[nH]c1=O,1
18,CN(Cc1cnc2nc(N)nc(N)c2n1)c1ccc(C(=O)N[C@@H](CCC(=O)O)C(=O)O)cc1,-1.25
19,CC(=O)CC[N+](C)(C)C,0.75
20,O=C(O)c1ccc(N2CCCCC2)cc1O,0.05
21,Oc1ccc(-c2nc3ccccc3s2)c(O)c1,1
22,c1ccc(-c2cn3ccccc3n2)cc1,-0.4
23,CC(=O)Nc1ccc(S(=O)(=O)N/N=c2/sc3ccccc3n2C)cc1N,1.55

# Among those listed so far, these contain a furan ring, fused or not:
row,Compound,T3 sensor activation Q score
14,CCc1oc2ccccc2c1C(=O)c1cc(Br)c(O)c(Br)c1,-0.35
18,CN(C)C(=S)/N=c1\ssc(=S)n1Cc1ccco1,-1.4
11,COc1ccc(N/C=C2\C(=O)CCc3c2oc2cc(Cl)c(O)c(Cl)c32)cc1,0.3
